{
  "sequences": {"note": "Amino acid sequences for entries named in this document (tags omitted). Residues count along the entry.", "UniProt P47871, residues 26-477": "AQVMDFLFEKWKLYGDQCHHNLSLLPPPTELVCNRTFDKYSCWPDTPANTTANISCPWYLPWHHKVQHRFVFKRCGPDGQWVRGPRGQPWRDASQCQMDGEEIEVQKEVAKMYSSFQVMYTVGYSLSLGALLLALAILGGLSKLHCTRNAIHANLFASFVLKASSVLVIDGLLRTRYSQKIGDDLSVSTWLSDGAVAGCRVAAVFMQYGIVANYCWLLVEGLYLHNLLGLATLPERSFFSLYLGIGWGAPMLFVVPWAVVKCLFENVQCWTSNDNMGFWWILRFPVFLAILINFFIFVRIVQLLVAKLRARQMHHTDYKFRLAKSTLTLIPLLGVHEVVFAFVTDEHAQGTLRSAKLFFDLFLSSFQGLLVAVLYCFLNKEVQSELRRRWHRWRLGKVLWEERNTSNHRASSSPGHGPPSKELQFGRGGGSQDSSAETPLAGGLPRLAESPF", "UniProt P43220, residues 24-463": "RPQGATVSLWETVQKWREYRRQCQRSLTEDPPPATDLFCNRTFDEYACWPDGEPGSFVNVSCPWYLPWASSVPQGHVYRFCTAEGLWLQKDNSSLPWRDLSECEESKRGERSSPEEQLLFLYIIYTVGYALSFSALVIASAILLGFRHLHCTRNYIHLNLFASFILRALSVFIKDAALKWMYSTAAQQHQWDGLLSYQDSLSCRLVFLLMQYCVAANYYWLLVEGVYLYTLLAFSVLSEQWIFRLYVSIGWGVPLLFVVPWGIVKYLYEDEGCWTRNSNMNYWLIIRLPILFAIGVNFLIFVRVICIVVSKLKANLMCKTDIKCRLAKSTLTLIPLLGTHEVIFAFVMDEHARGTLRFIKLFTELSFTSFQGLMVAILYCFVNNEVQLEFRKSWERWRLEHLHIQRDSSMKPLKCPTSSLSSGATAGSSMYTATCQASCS", "UniProt P32121": "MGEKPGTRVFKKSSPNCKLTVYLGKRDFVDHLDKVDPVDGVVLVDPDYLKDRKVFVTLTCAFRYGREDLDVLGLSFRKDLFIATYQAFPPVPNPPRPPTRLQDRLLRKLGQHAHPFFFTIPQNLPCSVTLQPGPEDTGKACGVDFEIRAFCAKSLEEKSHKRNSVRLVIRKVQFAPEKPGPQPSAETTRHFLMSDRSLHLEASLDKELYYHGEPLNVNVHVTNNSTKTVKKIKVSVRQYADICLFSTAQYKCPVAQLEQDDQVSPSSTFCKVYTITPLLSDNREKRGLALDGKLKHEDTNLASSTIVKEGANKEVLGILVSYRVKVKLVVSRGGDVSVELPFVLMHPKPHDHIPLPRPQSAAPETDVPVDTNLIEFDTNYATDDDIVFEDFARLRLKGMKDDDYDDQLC"},
  "source": "paper PMC7948418",
  "about": "“Genetic and biased agonist-mediated reductions in β-arrestin recruitment prolong cAMP signaling at glucagon family receptors” (The Journal of Biological Chemistry, 2020)",
  "key": {"[1]": {"target": "GCGR-SmBiT (UniProt P47871)", "test": "split reporter; NanoBiT complementation in HEK293T cells co-transfected with receptor-SmBiT and LgBiT-tagged effector; furimazine; 37 °C; baseline 5 min, then 100 nM cognate agonist (GLP-1, GIP or GCG) or vehicle, luminescence over 30 min, normalised to baseline and vehicle"}, "[2]": {"target": "GLP-1R-SmBiT (UniProt P43220)", "test": "split reporter; NanoBiT complementation in HEK293T cells co-transfected with receptor-SmBiT and LgBiT-tagged effector; furimazine; 37 °C; baseline 5 min, then 100 nM cognate agonist (GLP-1, GIP or GCG) or vehicle, luminescence over 30 min, normalised to baseline and vehicle"}},
  "note": "Results are given in words; binding and its absence hold for the method and conditions named. Binding seen in cells or lysates may run through a third protein. Some entries that bind do so weakly or less than the wild type.",
  "data": [
    {"substance": "LgBiT-β-arrestin-2 (from UniProt P32121 1-409)", "values": [
      {"measurement": "binding", "setting": "[1]", "value": "binds"},
      {"measurement": "binding", "setting": "[2]", "value": "binds"}
    ]}
  ]
}
